According to PMC7299196:
No constants are given. Whether binding was seen depends on the method and setting. In cells and extracts the contact can be indirect. For some assays here: Binding calls can cover weak binding; strength is not graded here. For some assays here: Sequences can lack the tags named with a protein.

What was measured:
[1] = target: T1, aDB1-derived unphosphorylated control peptide Y713 (DEST-Biotin-Ahx-…-NH2); test: pull-down; biotinylated peptides on streptavidin-coupled Dynabeads M-280; Arhgef5 C-terminal (HEK293T lysate by the legend, recombinant GST fusion by the methods) incubated overnight at 4°C in 20 mM Hepes, 150 mM NaCl, 0.5 mM EDTA, 10% glycerol, 0.05% Nonidet P-40, 1 mM DTT, pH 7.9; eluates by immunoblot; only the target purified
T1 sequence (peptide, DEST-Biotin-Ahx on the N-terminus; C-terminal amide): TQPEDGNYENESVRQ

[2] = target: T2, GFP-tagged alpha-dystrobrevin 1, full length (UniProt Q9D2N4); test: co-IP; FLAG-Arhgef5 and GFP-aDB1 coexpressed in HEK293T for 24 h; lysis buffer with 0.1% Nonidet P-40, 150 mM NaCl, 1 mM sodium pervanadate; Dynabeads-protein G with rabbit anti-GFP (1 h, 4°C) or rabbit anti-FLAG or rabbit IgG control (overnight, 4°C); immunoblot
T2 sequence: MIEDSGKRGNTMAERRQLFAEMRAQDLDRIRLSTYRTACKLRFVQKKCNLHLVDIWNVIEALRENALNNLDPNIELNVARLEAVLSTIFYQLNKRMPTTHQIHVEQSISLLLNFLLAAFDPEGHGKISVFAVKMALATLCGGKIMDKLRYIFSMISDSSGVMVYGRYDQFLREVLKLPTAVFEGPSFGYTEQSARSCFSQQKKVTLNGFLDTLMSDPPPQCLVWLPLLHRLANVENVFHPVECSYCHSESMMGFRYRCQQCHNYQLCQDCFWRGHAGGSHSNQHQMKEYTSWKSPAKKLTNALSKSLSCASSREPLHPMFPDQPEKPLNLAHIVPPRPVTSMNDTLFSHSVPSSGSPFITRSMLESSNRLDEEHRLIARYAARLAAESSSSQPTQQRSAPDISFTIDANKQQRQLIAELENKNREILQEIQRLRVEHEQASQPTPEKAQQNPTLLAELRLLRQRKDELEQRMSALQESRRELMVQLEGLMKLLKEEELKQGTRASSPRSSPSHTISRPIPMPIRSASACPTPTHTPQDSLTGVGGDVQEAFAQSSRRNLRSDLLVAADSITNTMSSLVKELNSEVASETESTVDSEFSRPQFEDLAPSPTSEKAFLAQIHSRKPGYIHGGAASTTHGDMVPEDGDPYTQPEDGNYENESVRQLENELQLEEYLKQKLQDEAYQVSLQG

binding [1] | binding [2] | Substance
no binding | – | FLAG-Arhgef5 C-terminal isoform (domain or fragment)
– | binds | FLAG-tagged Arhgef5, full length
